Results published in patent publication US20030176671A1.
Changes are numbered by the printed parent chain. No constants are given. Whether binding was seen depends on the method and setting. For part of these data: In cells and extracts the contact can be indirect. Some entries that bind do so weakly or less than the wild type. Sequences can lack the tags named with a protein.

Protein sequences, listed by entry. Tags and fused reporters are not part of them.
UniProt Q07812: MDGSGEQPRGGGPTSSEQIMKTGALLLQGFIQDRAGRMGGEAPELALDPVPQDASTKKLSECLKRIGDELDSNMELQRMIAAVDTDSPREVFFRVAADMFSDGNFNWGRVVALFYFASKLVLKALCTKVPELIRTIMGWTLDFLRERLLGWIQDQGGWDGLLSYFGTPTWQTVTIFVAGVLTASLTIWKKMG
UniProt Q07817: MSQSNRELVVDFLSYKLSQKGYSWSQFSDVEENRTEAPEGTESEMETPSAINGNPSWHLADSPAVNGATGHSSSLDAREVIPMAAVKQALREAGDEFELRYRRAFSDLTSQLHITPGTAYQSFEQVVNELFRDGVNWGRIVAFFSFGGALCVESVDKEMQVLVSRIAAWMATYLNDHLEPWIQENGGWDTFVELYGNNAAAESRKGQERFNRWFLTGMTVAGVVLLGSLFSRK
UniProt P10415: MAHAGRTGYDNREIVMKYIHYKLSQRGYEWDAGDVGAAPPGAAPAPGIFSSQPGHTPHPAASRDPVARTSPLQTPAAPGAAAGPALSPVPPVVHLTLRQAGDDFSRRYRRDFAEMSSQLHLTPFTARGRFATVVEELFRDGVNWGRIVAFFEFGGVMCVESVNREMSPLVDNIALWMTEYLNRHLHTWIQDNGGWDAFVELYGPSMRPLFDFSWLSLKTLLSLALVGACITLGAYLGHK

Key:
Bax [1] = target: Bax (UniProt Q07812); experiment: anti-Myc immunoprecipitation from 293T cells, anti-Bax immunoblot (FIG. 4A)
GFP-Bcl-B (human) [2] = target: T1, GFP-Bcl-B (human) (UniProt Q9HD36); experiment: co-immunoprecipitation (anti-Myc or anti-Flag) and western blot, FIG. 2
T1 sequence: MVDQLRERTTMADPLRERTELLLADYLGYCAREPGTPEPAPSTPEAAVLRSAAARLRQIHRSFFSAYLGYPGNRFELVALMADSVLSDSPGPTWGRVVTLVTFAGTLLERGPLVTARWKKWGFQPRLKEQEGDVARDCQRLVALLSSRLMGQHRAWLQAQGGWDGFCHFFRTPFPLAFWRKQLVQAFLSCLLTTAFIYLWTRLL

Bax [3] = target: Bax (UniProt Q07812); experiment: anti-Myc immunoprecipitation from HEK293T lysates, anti-Bax immunoblot (FIG. 4A)
GFP-Bcl-B (human) [4] = target: T1, GFP-Bcl-B (human); experiment: co-immunoprecipitation from transfected 293T cell lysates, immunoblot
Flag-Bcl-XL = Flag-Bcl-XL (UniProt Q07817); experiment: as above
HA-Bax [5] = target: HA-Bax (UniProt Q07812); experiment: as above
Bcl-2 = Bcl-2 (UniProt P10415); experiment: as above
HA-Bax [6] = target: HA-Bax (UniProt Q07812); experiment: co-immunoprecipitation from transfected 293T cell lysates, immunoblot (FIG. 2)

Measured: binding

B1: Myc-Bcl-B (protein, not shown: small tags and cut ends)
chain: T1 sequence
binds: all assays above

B2: Myc-Bcl-B FFR(169-171)AAA (protein, not shown: small tags and cut ends)
chain: T1 sequence with F169A, F170A, R171A
binds: Bax [3]
